In PMC10011487 one finds binding data, which are given here for one substance.

Protein sequences, listed by entry. Tags and fused reporters are not part of them. Lines headed by an entry give the natural chain unless they say otherwise; changes in a name come on top.
UniProt Q9Y6E0: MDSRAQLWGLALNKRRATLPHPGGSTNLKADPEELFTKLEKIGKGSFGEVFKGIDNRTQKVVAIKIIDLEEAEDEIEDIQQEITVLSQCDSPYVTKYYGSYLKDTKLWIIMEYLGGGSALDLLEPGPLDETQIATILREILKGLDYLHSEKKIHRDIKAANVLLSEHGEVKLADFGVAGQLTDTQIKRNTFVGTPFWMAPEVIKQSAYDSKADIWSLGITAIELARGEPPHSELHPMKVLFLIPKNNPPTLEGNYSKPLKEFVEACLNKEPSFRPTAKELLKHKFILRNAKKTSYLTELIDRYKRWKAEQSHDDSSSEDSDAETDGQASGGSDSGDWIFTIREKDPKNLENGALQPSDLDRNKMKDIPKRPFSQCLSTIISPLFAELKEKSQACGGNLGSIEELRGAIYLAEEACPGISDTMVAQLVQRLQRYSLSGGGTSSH
UniProt P40763: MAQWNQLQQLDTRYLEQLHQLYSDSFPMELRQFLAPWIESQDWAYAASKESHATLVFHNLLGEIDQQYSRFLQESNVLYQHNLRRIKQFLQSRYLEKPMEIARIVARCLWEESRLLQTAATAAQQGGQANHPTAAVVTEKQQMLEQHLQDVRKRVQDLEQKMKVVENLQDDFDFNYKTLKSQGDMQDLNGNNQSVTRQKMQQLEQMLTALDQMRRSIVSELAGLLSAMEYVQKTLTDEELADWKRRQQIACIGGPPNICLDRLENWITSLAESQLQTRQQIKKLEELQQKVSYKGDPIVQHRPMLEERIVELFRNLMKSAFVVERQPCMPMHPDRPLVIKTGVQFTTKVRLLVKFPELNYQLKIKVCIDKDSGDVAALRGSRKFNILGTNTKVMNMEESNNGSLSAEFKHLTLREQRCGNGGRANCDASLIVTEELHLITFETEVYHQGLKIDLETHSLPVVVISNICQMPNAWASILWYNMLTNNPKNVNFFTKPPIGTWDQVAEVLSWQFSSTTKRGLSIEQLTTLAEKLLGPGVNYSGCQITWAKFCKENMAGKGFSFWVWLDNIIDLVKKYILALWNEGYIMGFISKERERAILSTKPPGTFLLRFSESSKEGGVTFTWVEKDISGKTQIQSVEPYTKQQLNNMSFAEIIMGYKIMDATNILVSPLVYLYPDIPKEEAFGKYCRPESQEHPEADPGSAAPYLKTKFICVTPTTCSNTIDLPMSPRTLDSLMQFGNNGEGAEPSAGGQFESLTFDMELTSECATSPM

For this experiment, the target named is GST-STK24 fusion protein (UniProt Q9Y6E0). Put plainly: pull-down; purified His-STAT3 co-incubated with purified GST or GST-STK24 over night at 4 °C, then precipitated with Anti-GST Magnetic Beads; both purified.

Results are given in words; binding and its absence hold for the method and conditions named. A result given as binding can be weak or reduced; the word gives no strength.

For “His-STAT3 fusion protein (from UniProt P40763 1-770)”, the binding entry was “binds”.
